Experimental data as given in the supplement of paper PMC7666118.
Some of the results follow.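 The calls were made as follows: active = dose-dependent thermal stabilisation significant by F-test of dose-response against flat model at 10% FDR; inactive = not significant.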

By UniProt entry, the sequences of proteins in these tests, tags left out. Where a name states a change or a piece, a line headed by the entry shows the natural chain unless it says otherwise.
UniProt Q13614, whole entry: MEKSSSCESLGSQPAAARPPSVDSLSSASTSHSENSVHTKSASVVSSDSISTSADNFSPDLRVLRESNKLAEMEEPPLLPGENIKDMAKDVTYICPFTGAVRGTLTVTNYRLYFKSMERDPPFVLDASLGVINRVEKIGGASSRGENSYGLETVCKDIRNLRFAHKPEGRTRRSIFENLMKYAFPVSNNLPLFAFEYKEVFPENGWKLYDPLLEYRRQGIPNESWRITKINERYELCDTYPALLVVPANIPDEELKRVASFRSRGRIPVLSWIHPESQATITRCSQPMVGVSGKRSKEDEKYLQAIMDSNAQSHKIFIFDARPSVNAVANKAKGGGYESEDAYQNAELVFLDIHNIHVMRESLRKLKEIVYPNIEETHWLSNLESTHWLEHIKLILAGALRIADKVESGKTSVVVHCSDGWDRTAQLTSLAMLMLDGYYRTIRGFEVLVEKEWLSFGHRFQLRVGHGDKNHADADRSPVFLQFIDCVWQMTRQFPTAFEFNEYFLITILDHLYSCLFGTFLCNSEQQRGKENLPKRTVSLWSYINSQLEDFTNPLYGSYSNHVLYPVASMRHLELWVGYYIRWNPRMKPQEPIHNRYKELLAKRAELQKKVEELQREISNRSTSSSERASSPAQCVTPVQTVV
UniProt Q9BWT6: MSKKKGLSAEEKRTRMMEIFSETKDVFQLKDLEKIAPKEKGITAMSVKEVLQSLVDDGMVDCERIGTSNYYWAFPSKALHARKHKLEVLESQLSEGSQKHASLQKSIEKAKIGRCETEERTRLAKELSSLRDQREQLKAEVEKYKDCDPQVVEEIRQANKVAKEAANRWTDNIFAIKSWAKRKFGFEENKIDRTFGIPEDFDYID
UniProt P35580, whole entry: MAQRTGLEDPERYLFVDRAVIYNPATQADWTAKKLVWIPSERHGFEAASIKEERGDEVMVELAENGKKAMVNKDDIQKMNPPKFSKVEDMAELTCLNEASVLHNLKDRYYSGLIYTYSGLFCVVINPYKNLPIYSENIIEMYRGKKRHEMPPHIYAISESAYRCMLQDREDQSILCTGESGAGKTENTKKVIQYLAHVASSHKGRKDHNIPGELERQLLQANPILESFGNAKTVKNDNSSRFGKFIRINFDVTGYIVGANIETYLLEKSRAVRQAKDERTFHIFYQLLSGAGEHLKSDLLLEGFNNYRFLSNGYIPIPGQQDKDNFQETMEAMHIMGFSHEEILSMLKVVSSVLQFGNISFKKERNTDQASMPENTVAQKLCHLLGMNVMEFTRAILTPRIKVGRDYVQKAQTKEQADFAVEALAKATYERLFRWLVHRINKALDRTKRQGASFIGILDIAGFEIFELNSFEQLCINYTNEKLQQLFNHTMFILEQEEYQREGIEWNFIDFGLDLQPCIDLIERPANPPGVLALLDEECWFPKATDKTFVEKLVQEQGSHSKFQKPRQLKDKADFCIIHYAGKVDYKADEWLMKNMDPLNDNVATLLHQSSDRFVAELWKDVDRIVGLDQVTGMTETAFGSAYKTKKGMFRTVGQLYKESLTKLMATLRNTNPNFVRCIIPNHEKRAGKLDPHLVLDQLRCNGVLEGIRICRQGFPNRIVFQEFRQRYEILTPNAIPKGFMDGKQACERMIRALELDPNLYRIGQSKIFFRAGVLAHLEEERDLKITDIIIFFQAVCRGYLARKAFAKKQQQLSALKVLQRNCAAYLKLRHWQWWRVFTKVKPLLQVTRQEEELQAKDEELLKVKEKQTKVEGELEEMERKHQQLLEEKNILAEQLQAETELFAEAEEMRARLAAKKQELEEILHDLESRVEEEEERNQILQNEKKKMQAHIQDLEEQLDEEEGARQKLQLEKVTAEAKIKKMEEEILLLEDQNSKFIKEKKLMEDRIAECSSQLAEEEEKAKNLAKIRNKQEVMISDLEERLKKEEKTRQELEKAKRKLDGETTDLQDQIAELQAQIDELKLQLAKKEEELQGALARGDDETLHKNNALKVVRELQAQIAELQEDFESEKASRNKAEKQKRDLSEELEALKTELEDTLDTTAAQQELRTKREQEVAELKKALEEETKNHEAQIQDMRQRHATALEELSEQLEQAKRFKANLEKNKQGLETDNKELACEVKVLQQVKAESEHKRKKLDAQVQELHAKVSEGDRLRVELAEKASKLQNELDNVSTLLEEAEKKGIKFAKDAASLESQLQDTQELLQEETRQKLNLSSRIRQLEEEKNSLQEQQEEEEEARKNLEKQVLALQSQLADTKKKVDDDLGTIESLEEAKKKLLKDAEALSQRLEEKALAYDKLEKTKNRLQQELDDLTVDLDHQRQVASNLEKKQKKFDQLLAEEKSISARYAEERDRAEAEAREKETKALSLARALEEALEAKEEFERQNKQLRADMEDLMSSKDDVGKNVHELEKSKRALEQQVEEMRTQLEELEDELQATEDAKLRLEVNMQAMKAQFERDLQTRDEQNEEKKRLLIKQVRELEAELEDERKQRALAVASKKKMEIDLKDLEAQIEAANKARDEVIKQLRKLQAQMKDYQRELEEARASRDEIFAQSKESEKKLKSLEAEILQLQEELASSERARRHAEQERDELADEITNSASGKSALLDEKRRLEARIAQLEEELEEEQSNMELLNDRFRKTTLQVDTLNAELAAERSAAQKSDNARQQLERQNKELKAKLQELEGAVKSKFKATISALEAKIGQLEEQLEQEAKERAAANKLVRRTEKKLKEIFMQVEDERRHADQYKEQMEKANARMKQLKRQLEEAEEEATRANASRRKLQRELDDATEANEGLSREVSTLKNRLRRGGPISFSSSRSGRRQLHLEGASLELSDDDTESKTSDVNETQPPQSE
UniProt Q9UPY8, whole entry: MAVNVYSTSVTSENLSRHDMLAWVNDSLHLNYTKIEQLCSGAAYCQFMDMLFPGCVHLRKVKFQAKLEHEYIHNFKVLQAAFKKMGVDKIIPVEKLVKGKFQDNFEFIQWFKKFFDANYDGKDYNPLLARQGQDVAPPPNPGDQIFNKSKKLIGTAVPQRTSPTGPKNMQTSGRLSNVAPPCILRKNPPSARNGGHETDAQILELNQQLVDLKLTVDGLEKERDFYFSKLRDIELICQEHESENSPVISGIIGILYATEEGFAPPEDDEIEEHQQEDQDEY
UniProt Q86W50: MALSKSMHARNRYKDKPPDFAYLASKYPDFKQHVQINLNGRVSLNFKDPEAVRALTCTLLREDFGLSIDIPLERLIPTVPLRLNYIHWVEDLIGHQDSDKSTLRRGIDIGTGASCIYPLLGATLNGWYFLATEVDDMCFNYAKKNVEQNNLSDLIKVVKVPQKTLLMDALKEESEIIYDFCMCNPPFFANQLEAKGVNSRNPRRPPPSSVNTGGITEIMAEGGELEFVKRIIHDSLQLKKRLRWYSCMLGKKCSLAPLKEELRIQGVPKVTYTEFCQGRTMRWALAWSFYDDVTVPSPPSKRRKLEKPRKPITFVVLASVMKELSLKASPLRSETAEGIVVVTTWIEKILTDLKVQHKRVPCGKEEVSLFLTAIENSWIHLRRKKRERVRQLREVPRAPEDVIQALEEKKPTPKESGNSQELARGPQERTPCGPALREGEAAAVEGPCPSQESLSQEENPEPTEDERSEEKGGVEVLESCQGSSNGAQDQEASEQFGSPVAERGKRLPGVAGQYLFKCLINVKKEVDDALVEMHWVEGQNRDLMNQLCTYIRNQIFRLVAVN
UniProt P26038, whole entry: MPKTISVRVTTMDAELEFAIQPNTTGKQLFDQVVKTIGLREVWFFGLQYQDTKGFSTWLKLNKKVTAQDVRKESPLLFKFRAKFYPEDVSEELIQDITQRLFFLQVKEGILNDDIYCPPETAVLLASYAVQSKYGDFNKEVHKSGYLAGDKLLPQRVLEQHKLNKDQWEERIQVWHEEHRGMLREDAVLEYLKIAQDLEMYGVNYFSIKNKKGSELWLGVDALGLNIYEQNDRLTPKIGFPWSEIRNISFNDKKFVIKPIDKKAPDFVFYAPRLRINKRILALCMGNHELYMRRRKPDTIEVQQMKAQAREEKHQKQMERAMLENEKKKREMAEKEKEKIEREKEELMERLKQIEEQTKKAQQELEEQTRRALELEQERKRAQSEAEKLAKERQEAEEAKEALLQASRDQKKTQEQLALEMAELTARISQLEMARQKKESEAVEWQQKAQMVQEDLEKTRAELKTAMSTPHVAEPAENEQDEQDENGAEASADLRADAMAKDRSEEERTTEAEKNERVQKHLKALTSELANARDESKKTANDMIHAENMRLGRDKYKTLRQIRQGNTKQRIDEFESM
UniProt P16455, whole entry: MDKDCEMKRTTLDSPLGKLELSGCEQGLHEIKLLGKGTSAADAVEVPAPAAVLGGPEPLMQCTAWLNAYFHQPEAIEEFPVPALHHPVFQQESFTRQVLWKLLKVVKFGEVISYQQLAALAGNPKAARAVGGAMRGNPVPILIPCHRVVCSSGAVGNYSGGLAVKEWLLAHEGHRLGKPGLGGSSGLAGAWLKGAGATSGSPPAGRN
UniProt P49736, whole entry: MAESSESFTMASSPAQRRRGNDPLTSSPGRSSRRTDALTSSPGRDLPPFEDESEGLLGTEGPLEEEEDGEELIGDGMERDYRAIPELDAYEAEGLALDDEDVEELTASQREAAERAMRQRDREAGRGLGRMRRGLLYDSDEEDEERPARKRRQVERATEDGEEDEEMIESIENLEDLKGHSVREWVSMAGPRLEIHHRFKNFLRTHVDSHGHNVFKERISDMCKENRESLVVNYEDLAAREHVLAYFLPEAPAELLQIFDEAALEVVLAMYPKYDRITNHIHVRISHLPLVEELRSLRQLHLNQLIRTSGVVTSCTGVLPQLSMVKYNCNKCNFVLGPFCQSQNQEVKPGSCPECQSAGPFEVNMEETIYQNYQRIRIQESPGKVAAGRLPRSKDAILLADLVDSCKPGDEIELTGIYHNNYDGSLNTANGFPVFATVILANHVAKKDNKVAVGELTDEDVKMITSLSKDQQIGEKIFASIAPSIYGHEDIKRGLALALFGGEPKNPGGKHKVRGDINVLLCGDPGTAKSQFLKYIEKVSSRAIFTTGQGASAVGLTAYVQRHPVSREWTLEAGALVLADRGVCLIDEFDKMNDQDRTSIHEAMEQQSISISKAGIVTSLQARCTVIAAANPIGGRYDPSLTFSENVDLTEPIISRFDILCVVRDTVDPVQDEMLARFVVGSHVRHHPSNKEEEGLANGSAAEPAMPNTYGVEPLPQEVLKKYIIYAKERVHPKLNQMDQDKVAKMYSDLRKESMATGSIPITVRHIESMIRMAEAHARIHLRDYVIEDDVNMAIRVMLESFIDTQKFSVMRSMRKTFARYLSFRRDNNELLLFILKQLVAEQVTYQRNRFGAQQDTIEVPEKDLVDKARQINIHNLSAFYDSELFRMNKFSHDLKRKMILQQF
UniProt P13995: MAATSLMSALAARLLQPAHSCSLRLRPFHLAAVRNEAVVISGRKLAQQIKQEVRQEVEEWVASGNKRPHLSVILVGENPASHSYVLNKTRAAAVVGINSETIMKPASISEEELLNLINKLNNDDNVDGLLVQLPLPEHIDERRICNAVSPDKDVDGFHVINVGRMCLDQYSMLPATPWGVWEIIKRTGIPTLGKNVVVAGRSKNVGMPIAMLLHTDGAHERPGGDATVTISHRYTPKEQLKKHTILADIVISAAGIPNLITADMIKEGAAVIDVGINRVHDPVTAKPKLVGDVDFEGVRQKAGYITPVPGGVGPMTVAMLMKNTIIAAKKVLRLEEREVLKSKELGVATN
UniProt P33992: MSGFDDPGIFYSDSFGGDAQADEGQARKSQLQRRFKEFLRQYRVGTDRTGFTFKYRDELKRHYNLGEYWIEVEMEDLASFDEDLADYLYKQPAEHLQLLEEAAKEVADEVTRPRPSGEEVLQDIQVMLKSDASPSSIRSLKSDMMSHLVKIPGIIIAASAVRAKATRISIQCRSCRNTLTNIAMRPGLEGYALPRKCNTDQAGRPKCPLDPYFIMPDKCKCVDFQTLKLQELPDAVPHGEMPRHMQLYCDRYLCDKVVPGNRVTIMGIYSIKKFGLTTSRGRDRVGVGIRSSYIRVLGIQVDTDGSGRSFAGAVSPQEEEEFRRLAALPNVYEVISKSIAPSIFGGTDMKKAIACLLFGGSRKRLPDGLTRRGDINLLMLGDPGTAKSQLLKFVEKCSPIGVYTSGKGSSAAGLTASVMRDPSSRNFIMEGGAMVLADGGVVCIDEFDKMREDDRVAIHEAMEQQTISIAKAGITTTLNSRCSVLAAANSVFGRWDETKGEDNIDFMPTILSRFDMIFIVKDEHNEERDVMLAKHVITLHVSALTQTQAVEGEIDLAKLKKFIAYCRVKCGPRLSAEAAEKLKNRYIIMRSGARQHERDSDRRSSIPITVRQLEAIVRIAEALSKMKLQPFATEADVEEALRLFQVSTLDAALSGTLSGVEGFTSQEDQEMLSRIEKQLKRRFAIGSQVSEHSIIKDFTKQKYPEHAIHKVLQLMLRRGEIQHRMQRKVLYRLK

compound: Nc1nc2c(ncn2[C@@H]2O[C@H](COP(=O)(O)OP(=O)(O)OP(=O)(O)O)[C@@H](O)[C@H]2O)c(=O)[nH]1; assay: dose-dependent thermal stabilisation call (2D-TPP, DLPTP, 10% FDR) (binary (1 = stabilised)); higher = stabilised by the compound; settings: system: Jurkat gel-filtered lysate; concentration range 1-500 µM

Row | Target | dose-dependent thermal stabilisation call
1 | MTMR2 (UniProt Q13614) | inactive: 0
2 | MKRN1 (UniProt Q9UHC7) | inactive: 0
3 | MAP3K2 (UniProt Q9Y2U5) | active: 1
4 | MOV10 (UniProt Q9HCE1) | inactive: 0
5 | MYSM1 (UniProt Q5VVJ2) | active: 1
6 | MND1 (UniProt Q9BWT6) | inactive: 0
7 | LZTFL1 (UniProt Q9NQ48) | inactive: 0
8 | MPHOSPH8 (UniProt Q99549) | inactive: 0
9 | MYH10 (UniProt P35580) | inactive: 0
10 | MORF4L1 (UniProt Q9UBU8) | inactive: 0
11 | MED22 (UniProt Q15528) | inactive: 0
12 | MAP3K7 (UniProt O43318) | inactive: 0
13 | LRRC47 (UniProt Q8N1G4) | inactive: 0
14 | MCM6 (UniProt Q14566) | active: 1
15 | MAPRE3 (UniProt Q9UPY8) | inactive: 0
16 | MED7 (UniProt O43513) | inactive: 0
17 | MCM7 (UniProt P33993) | inactive: 0
18 | METTL16 (UniProt Q86W50) | inactive: 0

Row | Target | dose-dependent thermal stabilisation call
19 | MTSS1L (UniProt Q765P7) | inactive: 0
20 | MKRN2 (UniProt Q9H000) | inactive: 0
21 | MSN (UniProt P26038) | inactive: 0
22 | LTF (UniProt P02788) | inactive: 0
23 | MBIP (UniProt Q9NS73) | inactive: 0
24 | MKI67 (UniProt P46013) | inactive: 0
25 | MACF1 (UniProt Q9UPN3) | inactive: 0
26 | MGMT (UniProt P16455) | inactive: 0
27 | MCM2 (UniProt P49736) | inactive: 0
28 | LRRC58 (UniProt Q96CX6) | inactive: 0
29 | MTHFD1 (UniProt P11586) | inactive: 0
30 | MED23 (UniProt Q9ULK4) | inactive: 0
31 | METTL26 (UniProt Q96S19) | inactive: 0
32 | MTHFD2 (UniProt P13995) | inactive: 0
33 | MMADHC (UniProt Q9H3L0) | inactive: 0
34 | MAD2L2 (UniProt Q9UI95) | inactive: 0
35 | MCM5 (UniProt P33992) | inactive: 0
36 | MBP (UniProt P02686) | inactive: 0

Exported with each value named: entries from further up
METTL26 (UniProt Q96S19)
  dose-dependent thermal stabilisation call: inactive: 0
MTHFD2 (UniProt P13995)
  dose-dependent thermal stabilisation call: inactive: 0
